Assay results as given in the supplement of paper PMC10849652.
The other results are listed elsewhere or left out.

Chains of the proteins cited; added tags and fusions are not shown. Lines headed by an entry give the natural chain unless they say otherwise; changes in a name come on top.
UniProt Q92995: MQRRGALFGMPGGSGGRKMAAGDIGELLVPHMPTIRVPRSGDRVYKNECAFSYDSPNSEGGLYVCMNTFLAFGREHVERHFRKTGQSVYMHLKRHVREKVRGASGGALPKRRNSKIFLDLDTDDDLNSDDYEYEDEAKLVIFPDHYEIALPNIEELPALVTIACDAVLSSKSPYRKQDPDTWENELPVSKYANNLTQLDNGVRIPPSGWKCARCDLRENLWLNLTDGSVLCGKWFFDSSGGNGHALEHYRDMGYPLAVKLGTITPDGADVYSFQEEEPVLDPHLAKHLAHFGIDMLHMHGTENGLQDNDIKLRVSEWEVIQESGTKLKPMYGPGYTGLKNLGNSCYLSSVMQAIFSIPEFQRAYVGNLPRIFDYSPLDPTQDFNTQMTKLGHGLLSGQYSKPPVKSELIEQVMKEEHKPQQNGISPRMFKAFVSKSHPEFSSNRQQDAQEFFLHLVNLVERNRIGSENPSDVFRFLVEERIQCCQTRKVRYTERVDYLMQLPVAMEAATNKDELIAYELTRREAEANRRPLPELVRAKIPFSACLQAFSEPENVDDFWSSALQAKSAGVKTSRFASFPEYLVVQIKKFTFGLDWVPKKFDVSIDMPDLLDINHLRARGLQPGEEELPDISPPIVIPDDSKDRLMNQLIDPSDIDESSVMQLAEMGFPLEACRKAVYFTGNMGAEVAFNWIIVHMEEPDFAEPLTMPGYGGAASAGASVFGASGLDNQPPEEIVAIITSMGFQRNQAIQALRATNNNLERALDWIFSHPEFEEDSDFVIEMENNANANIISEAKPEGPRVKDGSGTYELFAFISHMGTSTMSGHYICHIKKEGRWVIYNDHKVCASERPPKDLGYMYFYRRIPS
UniProt Q9UPU5: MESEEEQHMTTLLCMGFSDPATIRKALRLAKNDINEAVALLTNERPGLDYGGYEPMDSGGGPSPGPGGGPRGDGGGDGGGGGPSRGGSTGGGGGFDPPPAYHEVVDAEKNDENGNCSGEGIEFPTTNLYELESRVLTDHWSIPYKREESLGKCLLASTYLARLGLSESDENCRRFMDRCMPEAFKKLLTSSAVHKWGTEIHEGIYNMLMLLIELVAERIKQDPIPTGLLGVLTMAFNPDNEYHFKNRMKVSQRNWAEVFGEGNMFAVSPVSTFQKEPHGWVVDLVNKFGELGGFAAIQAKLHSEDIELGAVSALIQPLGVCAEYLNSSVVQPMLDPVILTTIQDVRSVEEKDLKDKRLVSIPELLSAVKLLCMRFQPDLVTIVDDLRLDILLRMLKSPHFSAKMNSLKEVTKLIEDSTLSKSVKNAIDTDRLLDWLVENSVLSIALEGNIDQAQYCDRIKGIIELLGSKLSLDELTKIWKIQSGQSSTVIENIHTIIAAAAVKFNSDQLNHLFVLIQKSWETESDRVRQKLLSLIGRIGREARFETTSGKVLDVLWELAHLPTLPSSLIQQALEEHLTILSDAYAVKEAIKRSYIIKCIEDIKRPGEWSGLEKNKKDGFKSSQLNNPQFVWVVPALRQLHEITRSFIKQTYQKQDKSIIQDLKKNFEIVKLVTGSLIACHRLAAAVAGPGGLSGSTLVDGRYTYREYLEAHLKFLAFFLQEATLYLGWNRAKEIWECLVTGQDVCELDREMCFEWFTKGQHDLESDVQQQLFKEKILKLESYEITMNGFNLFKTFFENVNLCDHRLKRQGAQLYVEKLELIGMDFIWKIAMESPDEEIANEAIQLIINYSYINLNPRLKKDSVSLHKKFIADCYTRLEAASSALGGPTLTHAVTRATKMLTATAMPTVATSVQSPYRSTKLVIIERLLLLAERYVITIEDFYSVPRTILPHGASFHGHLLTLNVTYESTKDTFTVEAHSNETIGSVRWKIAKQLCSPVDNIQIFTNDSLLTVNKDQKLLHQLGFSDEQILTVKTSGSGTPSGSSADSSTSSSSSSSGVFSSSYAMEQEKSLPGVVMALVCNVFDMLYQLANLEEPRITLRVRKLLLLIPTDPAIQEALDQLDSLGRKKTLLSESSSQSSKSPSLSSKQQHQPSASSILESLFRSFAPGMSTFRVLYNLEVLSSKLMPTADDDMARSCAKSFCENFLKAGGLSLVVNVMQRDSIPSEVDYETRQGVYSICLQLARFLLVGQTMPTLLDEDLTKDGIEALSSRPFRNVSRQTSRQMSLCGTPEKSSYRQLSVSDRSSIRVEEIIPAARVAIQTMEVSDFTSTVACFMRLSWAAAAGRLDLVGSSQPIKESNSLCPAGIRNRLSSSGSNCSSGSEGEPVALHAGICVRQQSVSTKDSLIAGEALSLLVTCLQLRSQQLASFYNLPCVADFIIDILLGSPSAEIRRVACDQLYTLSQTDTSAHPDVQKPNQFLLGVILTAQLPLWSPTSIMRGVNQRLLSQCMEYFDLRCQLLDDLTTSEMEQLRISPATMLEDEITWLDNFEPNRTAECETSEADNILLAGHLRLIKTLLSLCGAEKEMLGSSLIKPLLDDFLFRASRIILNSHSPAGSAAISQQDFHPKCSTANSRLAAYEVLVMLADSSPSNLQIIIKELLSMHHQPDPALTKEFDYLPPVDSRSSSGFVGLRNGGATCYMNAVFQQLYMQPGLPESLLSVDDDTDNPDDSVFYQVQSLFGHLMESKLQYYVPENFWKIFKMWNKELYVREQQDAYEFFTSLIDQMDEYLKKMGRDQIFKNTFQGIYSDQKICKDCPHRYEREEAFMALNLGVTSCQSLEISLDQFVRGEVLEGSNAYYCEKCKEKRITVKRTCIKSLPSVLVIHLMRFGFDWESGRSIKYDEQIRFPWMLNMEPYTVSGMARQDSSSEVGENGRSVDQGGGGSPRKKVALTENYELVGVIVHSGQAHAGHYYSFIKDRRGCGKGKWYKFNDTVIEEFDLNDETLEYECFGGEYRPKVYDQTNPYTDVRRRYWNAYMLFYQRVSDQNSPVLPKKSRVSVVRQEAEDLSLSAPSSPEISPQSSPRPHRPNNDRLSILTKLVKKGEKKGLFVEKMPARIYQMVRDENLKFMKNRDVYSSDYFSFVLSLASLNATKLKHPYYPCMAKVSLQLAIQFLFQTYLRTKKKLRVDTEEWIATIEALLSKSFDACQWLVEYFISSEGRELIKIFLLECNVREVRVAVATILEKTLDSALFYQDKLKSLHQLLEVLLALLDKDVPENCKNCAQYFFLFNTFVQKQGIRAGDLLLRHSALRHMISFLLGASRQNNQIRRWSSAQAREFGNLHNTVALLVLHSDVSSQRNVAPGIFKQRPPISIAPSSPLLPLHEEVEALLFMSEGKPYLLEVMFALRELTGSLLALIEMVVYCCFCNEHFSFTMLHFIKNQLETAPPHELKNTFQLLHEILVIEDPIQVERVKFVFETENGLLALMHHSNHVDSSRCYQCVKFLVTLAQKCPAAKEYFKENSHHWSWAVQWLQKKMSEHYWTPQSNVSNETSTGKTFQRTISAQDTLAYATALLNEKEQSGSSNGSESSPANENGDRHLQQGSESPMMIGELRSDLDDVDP
UniProt P61960, whole entry, looked up: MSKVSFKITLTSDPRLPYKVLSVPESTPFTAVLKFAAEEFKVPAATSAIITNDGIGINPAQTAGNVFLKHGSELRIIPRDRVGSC
UniProt A0JNW5: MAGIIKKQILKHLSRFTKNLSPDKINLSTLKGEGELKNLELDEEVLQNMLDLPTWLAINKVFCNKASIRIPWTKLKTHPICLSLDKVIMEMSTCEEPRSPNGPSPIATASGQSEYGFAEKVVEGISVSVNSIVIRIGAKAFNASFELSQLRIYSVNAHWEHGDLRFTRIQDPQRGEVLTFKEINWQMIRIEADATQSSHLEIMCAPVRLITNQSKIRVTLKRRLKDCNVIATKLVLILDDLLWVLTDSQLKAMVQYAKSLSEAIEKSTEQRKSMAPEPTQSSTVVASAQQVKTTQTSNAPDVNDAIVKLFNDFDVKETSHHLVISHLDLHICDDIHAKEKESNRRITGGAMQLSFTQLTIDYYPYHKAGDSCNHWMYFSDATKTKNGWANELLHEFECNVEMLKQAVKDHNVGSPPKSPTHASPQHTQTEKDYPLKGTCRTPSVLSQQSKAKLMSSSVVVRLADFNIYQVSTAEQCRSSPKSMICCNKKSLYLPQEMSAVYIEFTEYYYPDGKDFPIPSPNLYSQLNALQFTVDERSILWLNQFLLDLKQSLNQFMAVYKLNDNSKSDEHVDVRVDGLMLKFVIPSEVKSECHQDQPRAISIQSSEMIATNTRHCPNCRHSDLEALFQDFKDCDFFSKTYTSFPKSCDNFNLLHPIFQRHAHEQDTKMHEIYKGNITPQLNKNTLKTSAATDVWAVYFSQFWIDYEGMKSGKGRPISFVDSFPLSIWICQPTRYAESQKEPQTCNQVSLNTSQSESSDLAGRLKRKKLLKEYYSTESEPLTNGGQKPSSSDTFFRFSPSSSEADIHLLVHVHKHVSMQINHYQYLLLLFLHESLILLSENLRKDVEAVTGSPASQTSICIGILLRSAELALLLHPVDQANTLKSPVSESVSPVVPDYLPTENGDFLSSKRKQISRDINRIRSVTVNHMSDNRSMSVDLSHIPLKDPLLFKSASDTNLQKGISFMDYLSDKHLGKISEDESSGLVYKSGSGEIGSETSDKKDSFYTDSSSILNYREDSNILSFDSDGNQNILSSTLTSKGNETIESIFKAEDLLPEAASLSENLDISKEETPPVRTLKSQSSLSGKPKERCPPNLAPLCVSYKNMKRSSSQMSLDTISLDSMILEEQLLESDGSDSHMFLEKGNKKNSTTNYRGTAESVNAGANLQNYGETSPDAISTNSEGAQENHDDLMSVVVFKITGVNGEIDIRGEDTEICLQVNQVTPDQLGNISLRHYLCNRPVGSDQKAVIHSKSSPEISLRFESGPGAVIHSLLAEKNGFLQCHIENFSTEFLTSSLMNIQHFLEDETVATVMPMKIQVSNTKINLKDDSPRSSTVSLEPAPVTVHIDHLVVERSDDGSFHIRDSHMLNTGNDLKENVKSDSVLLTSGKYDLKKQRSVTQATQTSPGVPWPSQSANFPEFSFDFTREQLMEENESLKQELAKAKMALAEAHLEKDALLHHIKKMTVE
UniProt Q6BDS2: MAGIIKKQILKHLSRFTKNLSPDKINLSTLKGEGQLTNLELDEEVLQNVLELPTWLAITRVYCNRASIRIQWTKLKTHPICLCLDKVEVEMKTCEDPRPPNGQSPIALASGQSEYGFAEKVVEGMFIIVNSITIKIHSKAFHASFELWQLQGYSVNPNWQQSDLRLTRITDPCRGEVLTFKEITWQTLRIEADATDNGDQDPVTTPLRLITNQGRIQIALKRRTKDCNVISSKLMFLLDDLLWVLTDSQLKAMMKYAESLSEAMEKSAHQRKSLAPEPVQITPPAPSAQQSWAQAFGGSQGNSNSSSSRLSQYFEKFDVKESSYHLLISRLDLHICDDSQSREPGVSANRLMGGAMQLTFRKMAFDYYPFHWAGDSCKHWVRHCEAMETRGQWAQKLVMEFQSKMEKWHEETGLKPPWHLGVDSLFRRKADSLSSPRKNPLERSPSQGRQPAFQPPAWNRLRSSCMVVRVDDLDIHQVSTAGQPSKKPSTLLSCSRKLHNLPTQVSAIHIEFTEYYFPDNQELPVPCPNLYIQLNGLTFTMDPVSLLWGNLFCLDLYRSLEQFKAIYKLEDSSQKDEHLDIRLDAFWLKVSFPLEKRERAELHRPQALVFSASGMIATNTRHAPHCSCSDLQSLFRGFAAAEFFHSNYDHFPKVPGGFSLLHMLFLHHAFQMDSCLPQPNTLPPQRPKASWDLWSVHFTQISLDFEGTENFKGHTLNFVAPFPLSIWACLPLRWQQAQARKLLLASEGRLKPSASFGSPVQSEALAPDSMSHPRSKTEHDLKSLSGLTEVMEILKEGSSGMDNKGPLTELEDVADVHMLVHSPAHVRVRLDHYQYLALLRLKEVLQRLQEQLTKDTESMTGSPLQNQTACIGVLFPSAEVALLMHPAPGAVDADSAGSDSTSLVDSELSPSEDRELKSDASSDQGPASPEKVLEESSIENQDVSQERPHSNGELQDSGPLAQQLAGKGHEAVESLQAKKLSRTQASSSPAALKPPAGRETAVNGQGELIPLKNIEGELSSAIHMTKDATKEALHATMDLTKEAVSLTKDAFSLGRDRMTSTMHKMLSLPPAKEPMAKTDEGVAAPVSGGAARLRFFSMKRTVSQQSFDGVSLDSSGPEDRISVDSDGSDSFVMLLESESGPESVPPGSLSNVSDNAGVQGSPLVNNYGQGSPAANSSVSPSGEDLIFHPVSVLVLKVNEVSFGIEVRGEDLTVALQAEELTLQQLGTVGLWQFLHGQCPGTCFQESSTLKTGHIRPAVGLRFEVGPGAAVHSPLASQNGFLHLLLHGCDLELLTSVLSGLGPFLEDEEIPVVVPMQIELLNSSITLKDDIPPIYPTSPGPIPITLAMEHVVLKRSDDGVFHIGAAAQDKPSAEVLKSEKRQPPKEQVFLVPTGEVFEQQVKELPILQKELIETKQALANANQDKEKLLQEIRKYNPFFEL

Tests used:
Assay in all cases: log2 fold change, soluble protein after heating vs DMSO (PISA); higher = thermal stabilisation; K562 cells, 10 uM, 30 min; active = over 0.2 and 3.5 SD of the protein, either way, in both replicates (recomputed)
[1] = compound: CC[C@@H]1C(=O)N(C)c2cnc(Nc3ccc(C(=O)NC4CCN(C)CC4)cc3OC)nc2N1C1CCCC1
Outline: (§1)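 K562 cells at 2×10^6 cells/mL were treated for 30 min with 10 μM compound, and aliquots were heated for 3 min over 48°C-58°C before pooling. Extraction used PBS with 0.5% NP-40 at 4°C, and soluble protein was the supernatant after 21,000xg for 90 min, measured by TMTpro 16plex LC-MS/MS with channel sums equalised. Thermal stability values, relative to control samples and from duplicates, are log2 fold changes.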

volasertib = compound: CC[C@@H]1C(=O)N(C)c2cnc(Nc3ccc(C(=O)N[C@H]4CC[C@H](N5CCN(CC6CC6)CC5)CC4)cc3OC)nc2N1C(C)C [volasertib]
Outline: as §1

[2] = compound: CC[C@H](C)N1C=C(C2=C(C=C(C=C21)C3=CN=C(C=C3)N4CCNCC4)C(=O)NCC5=C(C=C(NC5=O)C)C)C
Outline: as §1

[3] = compound: CCn1c(C(=O)N(C2CC2)C2CC2)cc2c3c(ncn3C)c(Nc3cc(C)n(C)n3)nc21
Outline: as §1

[4] = compound: CN(C)CC(=O)Nc1ccc2[nH]c(=O)c3ccccc3c2c1
Outline: as §1

rosiglitazone = compound: CN(CCOC1=CC=C(C=C1)C[C@H]2C(=O)NC(=O)S2)C3=CC=CC=N3 (racemic) [rosiglitazone]
Outline: as §1

[5] = compound: CN1C2=C(C3=C1C(=O)N(N=C3)CC4=CC(=CC=C4)N)SC(=C2)S(=O)C
Outline: as §1

saracatinib = compound: CN1CCN(CCOc2cc(OC3CCOCC3)c3c(Nc4c(Cl)ccc5c4OCO5)ncnc3c2)CC1 [saracatinib]
Outline: as §1

sotrastaurin = compound: CN1CCN(c2nc(C3=C(c4c[nH]c5ccccc45)C(=O)NC3=O)c3ccccc3n2)CC1 [sotrastaurin]
Outline: as §1

alvocidib = compound: CN1CC[C@H](c2c(O)cc(O)c3c(=O)cc(-c4ccccc4Cl)oc23)[C@H](O)C1 [alvocidib]
Outline: as §1

Tubastatin A = compound: CN1CCc2c(c3ccccc3n2Cc2ccc(C(=O)NO)cc2)C1 [Tubastatin A]
Outline: as §1

[6] = compound: CNC(=O)C1=CC=CC=C1NC2=NC(=NC=C2Cl)NC3=C(C=C(C=C3)N4CCOCC4)OC
Outline: as §1

defactinib = compound: CNC(=O)c1ccc(Nc2ncc(C(F)(F)F)c(NCc3nccnc3N(C)S(C)(=O)=O)n2)cc1 [defactinib]
Outline: as §1

rucaparib = compound: CNCc1ccc(-c2[nH]c3cc(F)cc4c3c2CCNC4=O)cc1 [rucaparib]
Outline: as §1

[7] = compound: CNc1nc(-c2ccc3c(N)n[nH]c3c2)cc(N2C[C@@H](C(=O)NC3CCCCC3)CC[C@H]2C)n1
Outline: as §1

encorafenib = compound: COC(=O)N[C@@H](C)CNc1nccc(-c2cn(C(C)C)nc2-c2cc(Cl)cc(NS(C)(=O)=O)c2F)n1 [encorafenib]
Outline: as §1

[8] = compound: COC(=O)[C@H](CCSC)NC(=O)C1=C(C=C(C=C1)NC[C@H](CS)N)C2=CC=CC=C2
Outline: as §1

epoxomicin = compound: CC[C@H](C)[C@@H](C(=O)N[C@@H]([C@@H](C)O)C(=O)N[C@@H](CC(C)C)C(=O)[C@]1(CO1)C)NC(=O)[C@H]([C@@H](C)CC)N(C)C(=O)C [epoxomicin]
Outline: as §1

[9] = compound: CCn1cc(-c2ccnc3[nH]c(-c4cccc(CN(C)C)c4)cc23)c(-c2ccc(NC(=O)N(C)C)cc2)n1
Outline: as §1

[10] = compound: CN1CCC(CNc2ccc3ncc(-c4cccc(OC(F)(F)F)c4)n3n2)CC1
Outline: as §1

Measured: log2 fold change

USP13 (UniProt Q92995)
inactive: [1] -0.217 | volasertib -0.012 | [2] -0.045 | [3] 0.076 | [4] -0.029 | rosiglitazone -0.013 | [5] -0.036 | saracatinib -0.007 | sotrastaurin 0.064 | alvocidib -0.027 | Tubastatin A -0.101 | [6] 0.076 | defactinib -0.032 | rucaparib 0.024 | [7] 0.006 | encorafenib -0.067 | [8] 0.027

USP24 (UniProt Q9UPU5)
inactive: [1] -0.04 | volasertib -0.1 | [2] -0.047 | epoxomicin 0.073 | [9] -0.062 | [4] 0.055 | [5] -0.123 | [10] 0.137 | saracatinib 0.033 | sotrastaurin 0.092 | Tubastatin A -0.143 | [6] 0.034 | defactinib -0.079 | rucaparib -0.03 | [7] 0.278 | encorafenib 0.048 | [8] -0.034

UBIAD1 (UniProt Q9Y5Z9)
active: rucaparib 0.473
inactive: [1] -0.008 | volasertib -0.065 | [2] -0.014 | [9] 0.027 | [4] -0.011 | [5] -0.094 | [10] -0.041 | saracatinib 0.003 | sotrastaurin 0.208 | Tubastatin A -0.078 | [6] 0.054 | defactinib 0.002 | [7] -0.053 | encorafenib -0.035 | [8] -0.039

UMAD1 (UniProt C9J7I0)
inactive: [1] -0.017 | volasertib 0.089 | [2] -0.036 | [3] 0.014 | [9] 0.126 | rosiglitazone -0.041 | [5] -0.01 | [10] 0.166 | saracatinib -0.056 | alvocidib -0.095 | Tubastatin A -0.055 | [6] -0.019 | rucaparib -0.004 | [7] -0.203 | encorafenib -0.033

UBE3D (UniProt Q7Z6J8)
inactive: [1] -0.033 | volasertib -0.053 | [2] 0.012 | epoxomicin 0.031 | [9] -0.023 | [4] -0.004 | [5] -0.051 | [10] -0.016 | saracatinib 0.027 | sotrastaurin -0.007 | Tubastatin A -0.043 | [6] -0.058 | defactinib -0.003 | rucaparib 0.161 | [7] -0.064 | encorafenib 0.005 | [8] -0.108

UGCG (UniProt Q16739)
inactive: [1] 0.006 | volasertib 0.04 | epoxomicin 0.097 | [3] 0 | [4] -0.067 | rosiglitazone -0.03 | [5] -0.155 | saracatinib -0.09 | sotrastaurin -0.127 | alvocidib 0.066 | Tubastatin A 0.01 | [6] 0.075 | defactinib 0.074 | rucaparib 0.108 | [7] 0.052 | encorafenib -0.033 | [8] -0.029

UCHL5 isoform 3 (UniProt Q9Y5K5)
active: volasertib -0.617
inactive: [1] -0.008 | [2] 0.126 | epoxomicin 0.293 | [4] 0.074 | sotrastaurin -0.292 | Tubastatin A -0.035 | [6] 0.136 | defactinib 0.03 | rucaparib -0.08 | encorafenib 0.241 | [8] -0.254

USO1 isoform 2 (UniProt O60763)
inactive: [1] -0.108 | [2] 0.025 | epoxomicin 0.043 | [9] -0.018 | [4] 0.015 | [5] -0.059 | [10] -0.111 | saracatinib 0.076 | sotrastaurin -0.028 | Tubastatin A -0.026 | [6] 0.029 | defactinib -0.034 | rucaparib -0.019 | [7] 0.03 | encorafenib 0.022 | [8] -0.003
active: volasertib -0.254

UFM1 (UniProt P61960)
inactive: [1] 0.025 | volasertib -0.13 | [2] -0.092 | epoxomicin 0.023 | [4] 0.043 | [5] -0.062 | saracatinib 0.028 | sotrastaurin -0.004 | Tubastatin A 0.097 | [6] 0.026 | defactinib -0.066 | rucaparib -0.119 | [7] -0.013 | encorafenib 0.029 | [8] -0.031

ULBP2 (UniProt Q9BZM5)
inactive: [1] -0.036 | volasertib 0.251 | [2] -0.008 | epoxomicin 0.108 | sotrastaurin -0.035 | alvocidib -0.043 | Tubastatin A -0.188 | rucaparib -0.035 | encorafenib 0.049

UFM1 isoform 2 (UniProt P61960)
inactive: [1] 0.116 | volasertib 0.012 | [2] 0.069 | epoxomicin 0.029 | [9] -0.001 | [4] 0.114 | [5] 0.004 | [10] -0.005 | saracatinib 0 | sotrastaurin 0.044 | Tubastatin A -0.158 | [6] 0.022 | defactinib -0.065 | rucaparib -0.114 | [7] -0.024 | encorafenib 0.01 | [8] -0.082

UNK (UniProt Q9C0B0)
inactive: [1] -0.058 | volasertib -0.091 | [2] 0.066 | [3] -0.017 | [9] -0.007 | [4] -0.103 | rosiglitazone -0.024 | [5] -0.059 | [10] 0.069 | saracatinib -0.007 | sotrastaurin -0.097 | alvocidib -0.078 | Tubastatin A -0.009 | [6] -0.004 | defactinib -0.057 | rucaparib 0.119 | [7] -0.08 | encorafenib -0.07 | [8] 0.127

UHRF1BP1L (UniProt A0JNW5)
inactive: [1] 0.165 | volasertib 0.034 | [2] -0.009 | epoxomicin -0.022 | [9] -0.086 | [4] 0.02 | [5] -0.079 | [10] 0.1 | saracatinib -0.01 | sotrastaurin 0 | Tubastatin A 0.031 | [6] -0.051 | defactinib -0.024 | rucaparib -0.052 | [7] 0.05 | encorafenib -0.02 | [8] -0.029

UHRF1BP1 (UniProt Q6BDS2)
inactive: [1] 0.137 | volasertib 0.131 | [2] 0.036 | epoxomicin -0.067 | [9] -0.105 | [4] 0.012 | [5] -0.09 | saracatinib 0.011 | sotrastaurin 0.049 | Tubastatin A 0.016 | [6] -0.013 | defactinib -0.064 | rucaparib -0.007 | [7] 0.048 | encorafenib -0.012 | [8] 0.017
active: [10] 0.211

USP14 (UniProt P54578)
inactive: [1] -0.08 | volasertib -0.197 | [2] 0.053 | epoxomicin 0.106 | [9] -0.011 | [4] 0.003 | [5] -0.082 | [10] -0.072 | saracatinib -0.007 | sotrastaurin -0.013 | Tubastatin A 0.033 | [6] 0.012 | defactinib -0.064 | rucaparib -0.025 | [7] -0.01 | encorafenib 0.044 | [8] -0.021

USP3 (UniProt Q9Y6I4)
inactive: [1] -0.173 | volasertib -0.325 | [2] 0.04 | epoxomicin -0.083 | [9] -0.037 | [4] 0.063 | [5] -0.077 | saracatinib 0.16 | sotrastaurin 0.074 | Tubastatin A -0.181 | [6] -0.118 | defactinib -0.205 | rucaparib 0.042 | [7] 0.155 | encorafenib -0.008 | [8] -0.092
active: [10] -0.379

Two records drawn at random from the list so far:
UHRF1BP1 (UniProt Q6BDS2)
inactive: [1] 0.137 | volasertib 0.131 | [2] 0.036 | epoxomicin -0.067 | [9] -0.105 | [4] 0.012 | [5] -0.09 | saracatinib 0.011 | sotrastaurin 0.049 | Tubastatin A 0.016 | [6] -0.013 | defactinib -0.064 | rucaparib -0.007 | [7] 0.048 | encorafenib -0.012 | [8] 0.017
active: [10] 0.211

UHRF1BP1L (UniProt A0JNW5)
inactive: [1] 0.165 | volasertib 0.034 | [2] -0.009 | epoxomicin -0.022 | [9] -0.086 | [4] 0.02 | [5] -0.079 | [10] 0.1 | saracatinib -0.01 | sotrastaurin 0 | Tubastatin A 0.031 | [6] -0.051 | defactinib -0.024 | rucaparib -0.052 | [7] 0.05 | encorafenib -0.02 | [8] -0.029

Later entries.

UEVLD (UniProt Q8IX04)
inactive: [1] -0.085 | [2] 0.129 | epoxomicin 0.027 | [3] 0.159 | [9] 0.016 | [4] 0.432 | rosiglitazone 0.394 | [5] 0.092 | [10] 0.093 | saracatinib -0.06 | sotrastaurin 0.108 | alvocidib 0.02 | Tubastatin A 0.549 | [6] 0.192 | defactinib -0.032 | rucaparib 0.081 | [7] -0.144 | encorafenib 0.042 | [8] -0.082

USP48 isoform 8 (UniProt Q86UV5)
active: [1] -0.55 | volasertib -0.84
inactive: [2] 0.144 | epoxomicin -0.058 | [9] -0.047 | [4] 0.195 | [5] -0.013 | [10] -0.459 | saracatinib -0.037 | sotrastaurin -0.403 | Tubastatin A 0.197 | [6] 0.016 | defactinib -0.462 | rucaparib -0.085 | [7] -0.044 | encorafenib 0.065 | [8] -0.081

UBR2 (UniProt Q8IWV8)
inactive: [1] 0.046 | volasertib -0.104 | [2] -0.004 | epoxomicin 0.196 | [9] -0.039 | [4] -0.076 | [5] 0.114 | [10] -0.063 | saracatinib -0.065 | sotrastaurin -0.024 | Tubastatin A 0.098 | [6] -0.014 | defactinib -0.052 | rucaparib -0.012 | [7] 0.145 | encorafenib 0.143 | [8] 0.085
